Values from PubChem BioAssay AID1259254 (NCATS, 2017).
In all, the deposit lists about 59,000 reagents; this is an unselected part. Over the whole deposit, about 1,550 (2.6%) got an active call. 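G2 share is only a proxy for re-replication; each gene was hit by three separate siRNAs, and active genes were retested.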 The numbers tell different reagents against one gene apart. Further read-outs or replicates are left out here. No sequences are given here. The record does not give: the amount of reagent.

Test: 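Genome-wide screen for genes that prevent DNA re-replication in cancer cells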 (primary screen)
Cell system: human HCT116 colorectal cancer cells
Reagents: single siRNA against human genes
Timing: 3 days
Detection: 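Nuclei stained with Hoechst and imaged; cell-cycle phase assigned by DNA content; G2 share scaled per plate, non-targeting siRNA 0%, GMNN siRNA 100%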
Reading the numbers: G2 robust z-score: higher = more G2 cells, more excess DNA replication
Hit rule: 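An siRNA counts as active if its G2 robust z-score lies at least 5 MADs above the screen median; here such calls match roughly 38% of GMNN control or more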

| target | siRNA no. | G2 robust z-score | Call |
| --- | --- | --- | --- |
| MAN1B1 (GeneID 11253) | 1 | -1.07 | inactive |
| MAN1B1 (GeneID 11253) | 2 | -0.651 | inactive |
| MAN1B1 (GeneID 11253) | 3 | -0.831 | inactive |
| MYBPHL (GeneID 343263) | 1 | -0.244 | inactive |
| MYBPHL (GeneID 343263) | 2 | -0.06 | inactive |
| MYBPHL (GeneID 343263) | 3 | -0.706 | inactive |
| BRME1 (GeneID 79173) | 1 | -0.763 | inactive |
| BRME1 (GeneID 79173) | 2 | -0.669 | inactive |
| BRME1 (GeneID 79173) | 3 | -0.598 | inactive |
| CCDC106 (GeneID 29903) | 1 | -0.148 | inactive |
| CCDC106 (GeneID 29903) | 2 | -0.902 | inactive |
| CCDC106 (GeneID 29903) | 3 | -0.92 | inactive |
| PMS2P2 (GeneID 5380) | 1 | 0.769 | inactive |
| PMS2P2 (GeneID 5380) | 2 | 0.605 | inactive |
| PMS2P2 (GeneID 5380) | 3 | 0.413 | inactive |
| PODXL2 (GeneID 50512) | 1 | -0.701 | inactive |
| PODXL2 (GeneID 50512) | 2 | 1.24 | inactive |
| PODXL2 (GeneID 50512) | 3 | 0.346 | inactive |
| AGO3 (GeneID 192669) | 1 | -1.23 | inactive |
| AGO3 (GeneID 192669) | 2 | 4.34 | inactive |
| AGO3 (GeneID 192669) | 3 | 0.756 | inactive |
| COLEC12 (GeneID 81035) | 1 | 2.85 | inactive |
| COLEC12 (GeneID 81035) | 2 | 2.98 | inactive |
| COLEC12 (GeneID 81035) | 3 | 0.0441 | inactive |
| DESI2 (GeneID 51029) | 1 | -0.467 | inactive |
| DESI2 (GeneID 51029) | 2 | 2.83 | inactive |
| DESI2 (GeneID 51029) | 3 | 0.195 | inactive |
| LPAR1 (GeneID 1902) | 1 | 1.65 | inactive |
| LPAR1 (GeneID 1902) | 2 | -0.535 | inactive |
| LPAR1 (GeneID 1902) | 3 | -0.0793 | inactive |
| CYP1B1 (GeneID 1545) | 1 | -1.04 | inactive |
| CYP1B1 (GeneID 1545) | 2 | 2.29 | inactive |
| CYP1B1 (GeneID 1545) | 3 | -1.16 | inactive |
| OSBP (GeneID 5007) | 1 | 0.979 | inactive |
| OSBP (GeneID 5007) | 2 | 0.692 | inactive |
| OSBP (GeneID 5007) | 3 | 0.0112 | inactive |
| AGMO (GeneID 392636) | 1 | 0.211 | inactive |
| AGMO (GeneID 392636) | 2 | 1.18 | inactive |
| AGMO (GeneID 392636) | 3 | 1.55 | inactive |
| CYP2J2 (GeneID 1573) | 1 | -0.978 | inactive |
| CYP2J2 (GeneID 1573) | 2 | 0.734 | inactive |
| CYP2J2 (GeneID 1573) | 3 | -0.806 | inactive |
| PHKA2 (GeneID 5256) | 1 | 1.97 | inactive |
| PHKA2 (GeneID 5256) | 2 | 0.967 | inactive |
| PHKA2 (GeneID 5256) | 3 | 1.02 | inactive |
| ZNF114 (GeneID 163071) | 1 | 0.295 | inactive |
| ZNF114 (GeneID 163071) | 2 | -0.84 | inactive |
| ZNF114 (GeneID 163071) | 3 | -0.875 | inactive |
| LYZL1 (GeneID 84569) | 1 | -0.332 | inactive |
| LYZL1 (GeneID 84569) | 2 | -0.592 | inactive |
| LYZL1 (GeneID 84569) | 3 | -0.551 | inactive |
| SYNE4 (GeneID 163183) | 1 | -1.03 | inactive |
| SYNE4 (GeneID 163183) | 2 | 1.43 | inactive |
| SYNE4 (GeneID 163183) | 3 | -0.679 | inactive |
| SLC6A9 (GeneID 6536) | 1 | 0.219 | inactive |
| SLC6A9 (GeneID 6536) | 2 | -0.887 | inactive |
| SLC6A9 (GeneID 6536) | 3 | -0.887 | inactive |
| PRKX (GeneID 5613) | 1 | -0.397 | inactive |
| PRKX (GeneID 5613) | 2 | -0.165 | inactive |
| PRKX (GeneID 5613) | 3 | -0.804 | inactive |
| LINC01559 (GeneID 283422) | 1 | 0.108 | inactive |
| LINC01559 (GeneID 283422) | 2 | -0.0573 | inactive |
| LINC01559 (GeneID 283422) | 3 | 1.25 | inactive |
| FZD10-AS1 (GeneID 440119) | 1 | 0.85 | inactive |
| FZD10-AS1 (GeneID 440119) | 2 | 0.713 | inactive |
| FZD10-AS1 (GeneID 440119) | 3 | -0.612 | inactive |
| OSCAR (GeneID 126014) | 1 | -0.052 | inactive |
| OSCAR (GeneID 126014) | 2 | 0.832 | inactive |
| OSCAR (GeneID 126014) | 3 | -0.0948 | inactive |

11 entries already listed, arranged by “G2 robust z-score”, ascending.
| target | siRNA no. | G2 robust z-score | Call |
| --- | --- | --- | --- |
| AGO3 (GeneID 192669) | 1 | -1.23 | inactive |
| CCDC106 (GeneID 29903) | 3 | -0.92 | inactive |
| CCDC106 (GeneID 29903) | 2 | -0.902 | inactive |
| PODXL2 (GeneID 50512) | 1 | -0.701 | inactive |
| PODXL2 (GeneID 50512) | 3 | 0.346 | inactive |
| PMS2P2 (GeneID 5380) | 3 | 0.413 | inactive |
| PMS2P2 (GeneID 5380) | 2 | 0.605 | inactive |
| AGO3 (GeneID 192669) | 3 | 0.756 | inactive |
| PMS2P2 (GeneID 5380) | 1 | 0.769 | inactive |
| PODXL2 (GeneID 50512) | 2 | 1.24 | inactive |
| AGO3 (GeneID 192669) | 2 | 4.34 | inactive |
